{
  "source": "ChEMBL document CHEMBL1154351",
  "about": "“Aspergillusol A, an alpha-glucosidase inhibitor from the marine-derived fungus Aspergillus aculeatus” (J Nat Prod, 2009)",
  "test_system": "A549",
  "experiment": "Cytotoxicity against human A549 cells after 4 days by MTT assay",
  "format": "functional, cell-based",
  "conditions": "A549, 96 h",
  "method_in_brief": "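MTT read-out of viability in human HepG2, HuCCA-1 and A549 cancer cell lines, with doxorubicin as reference drug; IC50 values determined.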",
  "data": [
    {"smiles": "COc1cccc2c1C(=O)c1c(O)c3c(c(O)c1C2=O)C[C@@](O)(C(=O)CO)C[C@@H]3O[C@H]1C[C@H](N)[C@H](O)[C@H](C)O1", "note": "[DOXORUBICIN]", "values": [
      {"measurement": "IC50", "value": 400, "unit": "nM"}
    ]}
  ]
}
